{"sequences": {"note": "By UniProt entry, the sequences of proteins in these tests, tags left out.", "UniProt Q00613": "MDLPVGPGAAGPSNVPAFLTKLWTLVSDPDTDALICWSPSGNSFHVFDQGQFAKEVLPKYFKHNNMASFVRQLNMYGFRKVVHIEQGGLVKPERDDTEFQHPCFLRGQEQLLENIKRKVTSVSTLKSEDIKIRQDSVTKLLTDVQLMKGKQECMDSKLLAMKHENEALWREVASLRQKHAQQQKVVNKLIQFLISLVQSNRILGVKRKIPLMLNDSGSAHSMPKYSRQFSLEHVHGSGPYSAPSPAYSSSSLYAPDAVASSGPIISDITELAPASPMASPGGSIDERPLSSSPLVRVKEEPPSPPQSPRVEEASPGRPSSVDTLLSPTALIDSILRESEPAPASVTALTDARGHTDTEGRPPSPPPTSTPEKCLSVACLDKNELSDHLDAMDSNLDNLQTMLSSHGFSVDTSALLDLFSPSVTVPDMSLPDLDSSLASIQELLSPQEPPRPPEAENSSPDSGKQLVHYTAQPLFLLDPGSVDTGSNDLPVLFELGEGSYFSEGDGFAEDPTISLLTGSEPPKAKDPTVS", "UniProt O14744": "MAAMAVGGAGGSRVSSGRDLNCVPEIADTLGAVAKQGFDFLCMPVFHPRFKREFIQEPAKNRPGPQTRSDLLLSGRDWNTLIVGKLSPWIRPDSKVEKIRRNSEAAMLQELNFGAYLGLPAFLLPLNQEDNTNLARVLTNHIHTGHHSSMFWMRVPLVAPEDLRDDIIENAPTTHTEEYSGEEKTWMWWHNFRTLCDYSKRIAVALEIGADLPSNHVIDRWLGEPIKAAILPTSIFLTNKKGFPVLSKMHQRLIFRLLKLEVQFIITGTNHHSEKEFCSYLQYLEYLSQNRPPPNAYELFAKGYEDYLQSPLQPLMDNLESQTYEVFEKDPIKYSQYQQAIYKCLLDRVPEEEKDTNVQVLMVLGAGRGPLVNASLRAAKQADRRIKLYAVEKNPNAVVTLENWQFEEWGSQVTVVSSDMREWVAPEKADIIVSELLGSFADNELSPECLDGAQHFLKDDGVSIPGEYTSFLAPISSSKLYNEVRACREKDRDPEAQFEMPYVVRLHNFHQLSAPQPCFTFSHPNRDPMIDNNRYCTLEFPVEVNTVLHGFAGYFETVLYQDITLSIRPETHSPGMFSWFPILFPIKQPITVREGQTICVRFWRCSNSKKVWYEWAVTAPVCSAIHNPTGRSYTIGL"}, "source": "paper PMC12271312", "molecular_target": "Heat shock factor 1 (human (endogenous in SU-DHL-2, SU-DHL-4, SU-DHL-6)) (UniProt Q00613)", "test": "co-IP; nuclear extracts of wild-type SU-DHL-2, SU-DHL-4 and SU-DHL-6 cells incubated with anti-HSF1, anti-PRMT5 or control IgG at 4 °C overnight, A/G magnetic beads at 25 °C for 2 h; western blotting", "note": "These are yes or no findings as the source states them, for the method shown. In cells and extracts the contact can be indirect. Some results given as binding are weak or reduced against the parent protein; the word gives no strength.", "data": [{"substance": "protein arginine methyltransferase 5 (from UniProt O14744 1-637) (enzyme)", "values": [{"measurement": "binding", "result": "binds"}]}]}
